± gives the standard deviation of the averaged measurements. Differences between knockout arms are mostly noise.
Tested on: BT-20
Experiment: relative cell number vs DMSO control (72 h) (% of DMSO); higher = less growth inhibition (more cells)
Description: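 QMAP-Seq: a pool of 5 breast cancer cell lines (ZR-75-1, SKBR3, HCC-38, MDA-MB-231, BT-20), each carrying 12 doxycycline-inducible Cas9 sgRNA perturbations (11 knockouts plus non-targeting sgNT), was treated with compounds for 72 h at four 10-fold doses (10 nM-10 uM or 1 nM-1 uM range). Barcodes were amplified and sequenced, and cell number was interpolated from 293T spike-in standard curves. The result is expressed as % of the median of DMSO wells. Two biological replicates.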

CC(C)n1c(/C=C/C(O)CC(O)CC(=O)O)c(-c2ccc(F)cc2)c2ccccc21 (configuration not stated) [Fluvastatin]
Conditions | relative cell number
sgRNA knockout: sgATF3, 10 nM | 98.5 ± 8.6
sgRNA knockout: sgATF3, 100 nM | 97.5 ± 8.7
sgRNA knockout: sgATF3, 1000 nM | 76.1 ± 16
sgRNA knockout: sgATF3, 10000 nM | 70.3 ± 9.4
sgRNA knockout: sgATF4, 10 nM | 102 ± 22
sgRNA knockout: sgATF4, 100 nM | 98.7 ± 12
sgRNA knockout: sgATF4, 1000 nM | 97.1 ± 2.3
sgRNA knockout: sgATF4, 10000 nM | 69.3 ± 2
sgRNA knockout: sgATF6, 10 nM | 81.3 ± 9
sgRNA knockout: sgATF6, 100 nM | 99.8 ± 14
sgRNA knockout: sgATF6, 1000 nM | 92.1 ± 2.2
sgRNA knockout: sgATF6, 10000 nM | 65.5 ± 4.8
sgRNA knockout: sgATG7, 10 nM | 97.1 ± 1.6
sgRNA knockout: sgATG7, 100 nM | 98.8 ± 16
sgRNA knockout: sgATG7, 1000 nM | 85.7 ± 12
sgRNA knockout: sgATG7, 10000 nM | 66.6 ± 9.1
sgRNA knockout: sgERN1, 10 nM | 94.1 ± 5.8
sgRNA knockout: sgERN1, 100 nM | 114 ± 4
sgRNA knockout: sgERN1, 1000 nM | 97.6 ± 25
sgRNA knockout: sgERN1, 10000 nM | 68.4 ± 8.1
sgRNA knockout: sgHSF1, 10 nM | 98.7 ± 10
sgRNA knockout: sgHSF1, 100 nM | 92.2 ± 6.1
sgRNA knockout: sgHSF1, 1000 nM | 89.6 ± 6.2
sgRNA knockout: sgHSF1, 10000 nM | 70.9 ± 28
sgRNA knockout: sgHSF2, 10 nM | 83.5 ± 6.4
sgRNA knockout: sgHSF2, 100 nM | 89.3 ± 7.8
sgRNA knockout: sgHSF2, 1000 nM | 83.2 ± 24
sgRNA knockout: sgHSF2, 10000 nM | 71.3 ± 6.4
sgRNA knockout: sgKEAP1, 10 nM | 108 ± 23
sgRNA knockout: sgKEAP1, 100 nM | 99.2 ± 2.4
sgRNA knockout: sgKEAP1, 1000 nM | 94 ± 8
sgRNA knockout: sgKEAP1, 10000 nM | 67.4 ± 6.1
sgRNA knockout: sgNFE2L2, 10 nM | 96.8 ± 9.3
sgRNA knockout: sgNFE2L2, 100 nM | 94 ± 14
sgRNA knockout: sgNFE2L2, 1000 nM | 90.7 ± 20
sgRNA knockout: sgNFE2L2, 10000 nM | 75.5 ± 17
sgRNA knockout: sgSLC35F2, 10 nM | 100 ± 5.3
sgRNA knockout: sgSLC35F2, 100 nM | 105 ± 6.8
sgRNA knockout: sgSLC35F2, 1000 nM | 75.96 ± 0.44
sgRNA knockout: sgSLC35F2, 10000 nM | 73 ± 10
sgRNA knockout: sgXBP1, 10 nM | 87.2 ± 1
sgRNA knockout: sgXBP1, 100 nM | 108 ± 18
sgRNA knockout: sgXBP1, 1000 nM | 81.9 ± 30
sgRNA knockout: sgXBP1, 10000 nM | 83.3 ± 16

C[C@]12CC[C@@H]3c4ccc(O)cc4C[C@@H](CCCCCCCCC[S+]([O-])CCCC(F)(F)C(F)(F)F)[C@H]3[C@@H]1CC[C@@H]2O (some centres not stated) [Fulvestrant]
Conditions | relative cell number
sgRNA knockout: sgATF3, 10 nM | 96.5 ± 5.7
sgRNA knockout: sgATF3, 100 nM | 88.58 ± 0.19
sgRNA knockout: sgATF3, 1000 nM | 94.3 ± 14
sgRNA knockout: sgATF3, 10000 nM | 93.2 ± 26
sgRNA knockout: sgATF4, 10 nM | 89.22 ± 0.23
sgRNA knockout: sgATF4, 100 nM | 81.7 ± 12
sgRNA knockout: sgATF4, 1000 nM | 97.2 ± 26
sgRNA knockout: sgATF4, 10000 nM | 98.9 ± 7.5
sgRNA knockout: sgATF6, 10 nM | 85.3 ± 15
sgRNA knockout: sgATF6, 100 nM | 84.7 ± 11
sgRNA knockout: sgATF6, 1000 nM | 83.6 ± 1.3
sgRNA knockout: sgATF6, 10000 nM | 89.9 ± 9.2
sgRNA knockout: sgATG7, 10 nM | 87.1 ± 5.5
sgRNA knockout: sgATG7, 100 nM | 83.8 ± 18
sgRNA knockout: sgATG7, 1000 nM | 107 ± 6.1
sgRNA knockout: sgATG7, 10000 nM | 93.42 ± 0.31
sgRNA knockout: sgERN1, 10 nM | 102 ± 4.6
sgRNA knockout: sgERN1, 100 nM | 71.3 ± 1.7
sgRNA knockout: sgERN1, 1000 nM | 86.1 ± 1.9
sgRNA knockout: sgERN1, 10000 nM | 92.7 ± 4.2
sgRNA knockout: sgHSF1, 10 nM | 92.5 ± 2.7
sgRNA knockout: sgHSF1, 100 nM | 82.8 ± 7.5
sgRNA knockout: sgHSF1, 1000 nM | 95.9 ± 7.4
sgRNA knockout: sgHSF1, 10000 nM | 87.8 ± 3.5
sgRNA knockout: sgHSF2, 10 nM | 118 ± 11
sgRNA knockout: sgHSF2, 100 nM | 84 ± 22
sgRNA knockout: sgHSF2, 1000 nM | 88.7 ± 1.6
sgRNA knockout: sgHSF2, 10000 nM | 97.1 ± 8.5
sgRNA knockout: sgKEAP1, 10 nM | 91.1 ± 8.6
sgRNA knockout: sgKEAP1, 100 nM | 90.4 ± 7.6
sgRNA knockout: sgKEAP1, 1000 nM | 98.1 ± 18
sgRNA knockout: sgKEAP1, 10000 nM | 86.2 ± 16
sgRNA knockout: sgNFE2L2, 10 nM | 95.1 ± 4.5
sgRNA knockout: sgNFE2L2, 100 nM | 92.5 ± 5.2
sgRNA knockout: sgNFE2L2, 1000 nM | 87.5 ± 14
sgRNA knockout: sgNFE2L2, 10000 nM | 101 ± 11
sgRNA knockout: sgSLC35F2, 10 nM | 88.32 ± 0.38
sgRNA knockout: sgSLC35F2, 100 nM | 86.7 ± 5.3
sgRNA knockout: sgSLC35F2, 1000 nM | 91.2 ± 7.8
sgRNA knockout: sgSLC35F2, 10000 nM | 95.3 ± 20
sgRNA knockout: sgXBP1, 10 nM | 78.4 ± 3
sgRNA knockout: sgXBP1, 100 nM | 94.6 ± 9.8
sgRNA knockout: sgXBP1, 1000 nM | 89.4 ± 5.3
sgRNA knockout: sgXBP1, 10000 nM | 87.6 ± 15

OCCn1cc(-c2ccc3c(c2)CC/C3=N\O)c(-c2ccncc2)n1 [GDC0879]
Conditions | relative cell number
sgRNA knockout: sgATF3, 10 nM | 115 ± 11
sgRNA knockout: sgATF3, 100 nM | 96.6 ± 7
sgRNA knockout: sgATF3, 1000 nM | 103 ± 10
sgRNA knockout: sgATF3, 10000 nM | 103 ± 12
sgRNA knockout: sgATF4, 10 nM | 95.9 ± 8.5
sgRNA knockout: sgATF4, 100 nM | 94.8 ± 8.4
sgRNA knockout: sgATF4, 1000 nM | 122 ± 5.9
sgRNA knockout: sgATF4, 10000 nM | 111 ± 7.1
sgRNA knockout: sgATF6, 10 nM | 86.2 ± 8.1
sgRNA knockout: sgATF6, 100 nM | 103 ± 14
sgRNA knockout: sgATF6, 1000 nM | 114 ± 14
sgRNA knockout: sgATF6, 10000 nM | 96.5 ± 20
sgRNA knockout: sgATG7, 10 nM | 99.9 ± 18
sgRNA knockout: sgATG7, 100 nM | 104 ± 2.4
sgRNA knockout: sgATG7, 1000 nM | 102 ± 7.3
sgRNA knockout: sgATG7, 10000 nM | 119 ± 5.5
sgRNA knockout: sgERN1, 10 nM | 95.5 ± 12
sgRNA knockout: sgERN1, 100 nM | 107 ± 6.5
sgRNA knockout: sgERN1, 1000 nM | 113.4 ± 1.1
sgRNA knockout: sgERN1, 10000 nM | 120 ± 12
sgRNA knockout: sgHSF1, 10 nM | 103 ± 22
sgRNA knockout: sgHSF1, 100 nM | 117 ± 11
sgRNA knockout: sgHSF1, 1000 nM | 107 ± 16
sgRNA knockout: sgHSF1, 10000 nM | 94.1 ± 11
sgRNA knockout: sgHSF2, 10 nM | 111 ± 8.5
sgRNA knockout: sgHSF2, 100 nM | 110.2 ± 0.41
sgRNA knockout: sgHSF2, 1000 nM | 125.3 ± 0.86
sgRNA knockout: sgHSF2, 10000 nM | 112 ± 1.4
sgRNA knockout: sgKEAP1, 10 nM | 88 ± 12
sgRNA knockout: sgKEAP1, 100 nM | 99.7 ± 2.6
sgRNA knockout: sgKEAP1, 1000 nM | 112 ± 1.7
sgRNA knockout: sgKEAP1, 10000 nM | 111 ± 10
sgRNA knockout: sgNFE2L2, 10 nM | 111 ± 17
sgRNA knockout: sgNFE2L2, 100 nM | 117 ± 2.5
sgRNA knockout: sgNFE2L2, 1000 nM | 119 ± 2.5
sgRNA knockout: sgNFE2L2, 10000 nM | 124 ± 19
sgRNA knockout: sgSLC35F2, 10 nM | 85.2 ± 13
sgRNA knockout: sgSLC35F2, 100 nM | 100 ± 3.7
sgRNA knockout: sgSLC35F2, 1000 nM | 114 ± 10
sgRNA knockout: sgSLC35F2, 10000 nM | 97.2 ± 8.1
sgRNA knockout: sgXBP1, 10 nM | 90.1 ± 21
sgRNA knockout: sgXBP1, 100 nM | 117 ± 7
sgRNA knockout: sgXBP1, 1000 nM | 108 ± 9.3
sgRNA knockout: sgXBP1, 10000 nM | 110 ± 6.6
